In test [1] the target is T1, full-length human Sestrin2 (hSesn2), recombinant from E. coli (human), P58004.
T1 chain: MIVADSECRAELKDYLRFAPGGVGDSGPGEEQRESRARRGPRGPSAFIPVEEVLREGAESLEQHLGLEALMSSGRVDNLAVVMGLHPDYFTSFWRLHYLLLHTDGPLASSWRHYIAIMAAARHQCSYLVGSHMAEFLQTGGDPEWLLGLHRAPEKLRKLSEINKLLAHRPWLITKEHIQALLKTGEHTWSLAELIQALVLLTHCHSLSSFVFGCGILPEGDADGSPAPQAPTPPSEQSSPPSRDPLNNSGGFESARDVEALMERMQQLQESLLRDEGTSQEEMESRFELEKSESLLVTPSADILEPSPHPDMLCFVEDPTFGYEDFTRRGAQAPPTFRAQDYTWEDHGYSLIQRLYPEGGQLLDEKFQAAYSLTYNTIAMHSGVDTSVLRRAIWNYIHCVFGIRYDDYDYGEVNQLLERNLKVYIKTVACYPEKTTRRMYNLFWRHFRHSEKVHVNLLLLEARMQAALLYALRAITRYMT
As to the kind of experiment: SEC-MALS; 60 μM hSesn2; WTC-050S5 SEC column; 30 mM HEPES (pH 8.0), 100 mM NaCl, 1 mM TCEP; both purified. Particulars: remark: other sources report otherwise. (In general: Size exclusion chromatography separates by hydrodynamic size, large species first.)

Test [2] addresses T2, selenomethionine-substituted full-length human Sestrin2 (hSesn2-SeMet) (human), P58004.
T2 chain: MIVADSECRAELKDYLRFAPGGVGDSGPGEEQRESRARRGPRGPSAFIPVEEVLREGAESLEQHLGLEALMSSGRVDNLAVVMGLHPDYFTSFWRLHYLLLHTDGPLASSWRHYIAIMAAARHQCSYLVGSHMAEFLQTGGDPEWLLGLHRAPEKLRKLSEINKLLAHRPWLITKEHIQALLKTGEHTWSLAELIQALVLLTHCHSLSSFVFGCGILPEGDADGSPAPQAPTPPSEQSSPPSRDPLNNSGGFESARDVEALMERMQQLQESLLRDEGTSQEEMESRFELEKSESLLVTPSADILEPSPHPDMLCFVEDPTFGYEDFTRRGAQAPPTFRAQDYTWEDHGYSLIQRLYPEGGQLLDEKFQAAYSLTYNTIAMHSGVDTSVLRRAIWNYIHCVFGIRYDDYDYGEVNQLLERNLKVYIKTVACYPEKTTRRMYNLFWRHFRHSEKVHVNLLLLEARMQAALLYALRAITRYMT
As to the kind of experiment: crystal structure; SeMet-substituted hSesn2, SAD, 3.5 Å, space group I23, five copies per asymmetric unit; 0.1 M MES (pH 6.5), 1.15 M sodium malonate; both purified. The note with it: remark: other sources report otherwise.

The text below walks through data of publication PMC4674687.

These are yes or no findings as the source states them, for the method shown.

B1: full-length human Sestrin2 (hSesn2), recombinant from E. coli, P58004 1-480 (protein)
chain: MIVADSECRAELKDYLRFAPGGVGDSGPGEEQRESRARRGPRGPSAFIPVEEVLREGAESLEQHLGLEALMSSGRVDNLAVVMGLHPDYFTSFWRLHYLLLHTDGPLASSWRHYIAIMAAARHQCSYLVGSHMAEFLQTGGDPEWLLGLHRAPEKLRKLSEINKLLAHRPWLITKEHIQALLKTGEHTWSLAELIQALVLLTHCHSLSSFVFGCGILPEGDADGSPAPQAPTPPSEQSSPPSRDPLNNSGGFESARDVEALMERMQQLQESLLRDEGTSQEEMESRFELEKSESLLVTPSADILEPSPHPDMLCFVEDPTFGYEDFTRRGAQAPPTFRAQDYTWEDHGYSLIQRLYPEGGQLLDEKFQAAYSLTYNTIAMHSGVDTSVLRRAIWNYIHCVFGIRYDDYDYGEVNQLLERNLKVYIKTVACYPEKTTRRMYNLFWRHFRHSEKVHVNLLLLEARMQAALLYALRAITRYMT
For B1, the binding result in test [1] is listed as “no binding (tested: 60 μM)”.

B2: selenomethionine-substituted full-length human Sestrin2 (hSesn2-SeMet), P58004 1-480 (protein)
chain: MIVADSECRAELKDYLRFAPGGVGDSGPGEEQRESRARRGPRGPSAFIPVEEVLREGAESLEQHLGLEALMSSGRVDNLAVVMGLHPDYFTSFWRLHYLLLHTDGPLASSWRHYIAIMAAARHQCSYLVGSHMAEFLQTGGDPEWLLGLHRAPEKLRKLSEINKLLAHRPWLITKEHIQALLKTGEHTWSLAELIQALVLLTHCHSLSSFVFGCGILPEGDADGSPAPQAPTPPSEQSSPPSRDPLNNSGGFESARDVEALMERMQQLQESLLRDEGTSQEEMESRFELEKSESLLVTPSADILEPSPHPDMLCFVEDPTFGYEDFTRRGAQAPPTFRAQDYTWEDHGYSLIQRLYPEGGQLLDEKFQAAYSLTYNTIAMHSGVDTSVLRRAIWNYIHCVFGIRYDDYDYGEVNQLLERNLKVYIKTVACYPEKTTRRMYNLFWRHFRHSEKVHVNLLLLEARMQAALLYALRAITRYMT
modifications: here or on the partner: selenomethionine in place of methionine (12 selenium sites per monomer); selenomethionine in place of methionine (12 selenium sites per monomer)
Consider B2, for which the binding entry in test [2] is reported as “no binding”.
